# The whole screen tested about 400,000 compounds, of which about 13,000 (3.2%) were called active. The inconclusive results got no clear call from the source; some entries with a clear call stand among them for comparison. The call rests on the fitted dose curve; in most records, active means well fitted cell-killing curve with a large enough effect; inconclusive means small, poorly fitted or top-dose-only effect, or effect the other way; inactive means flat fitted curve, though single readings scatter. Where the call is inconclusive, the potency comes from a doubtful curve fit.
# Assay: qHTS assay for MDR1-selective chemotherapeutics: Primary screen using the drug-selected MDR subline cells KB-V1; further: nearly all actives have a fitted effect of over 60% in size
# Conditions: KB-V1 MDR cells viability, CellTiter-Glo, 72 h; series mostly up to 46.1 µM
# Summary of the method: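 Cytotoxicity via CellTiter-Glo luminescence after 72 h compound exposure at 37 degrees C. Cells: drug-selected KB-V1 line, DMEM phenol-red free plus 10% FBS. Compounds tested at multiple concentrations; normalized data fitted to concentration-effect curves.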
# Potency means the concentration at half of the fitted maximal effect.
row,Structure (SMILES),Potency
1,CS(=O)(=O)N(CC(=O)NCCSCc1c(F)cccc1Cl)c1ccc2c(c1)OCO2,"inconclusive: 29.1 µM [cytotoxic, single point]"
2,COC(=O)c1sc(-c2ccccc2)cc1NC(C)=O,"inconclusive: 25.9 µM [cytotoxic, partial curve, poor fit]"
3,COc1ccc2nc(SCC(=O)Nc3ccccc3C#N)[nH]c2c1,inactive
4,C=CCSc1nnc(CSc2nc3sc4c(c3c(=O)[nH]2)CCCC4)n1-c1ccccc1,active: 20.6 µM
5,CCc1ccccc1NC(=O)C1C2C=CC(O2)C1C(=O)O (configuration not stated),inactive
6,CC(C)CCOc1ccc(Cl)cc1CN1CCOCC1,inactive
7,COc1ccccc1N(Cc1cc(=O)[nH]c2ccccc12)C(=O)c1cccc([N+](=O)[O-])c1,inactive
8,Cc1cc(NC(=O)c2cccc(S(=O)(=O)N3CCCCCC3)c2)n(-c2ccccn2)n1,"inconclusive: 1.46 µM [cytotoxic, full curve]"
9,Cc1nn(C)c2c1c(C(F)(F)F)cc(=O)n2Cc1ccc(Br)cc1F,inactive
10,C[C@H](c1ccccc1)N1C[C@@H](COCc2ccccc2)Oc2cc(N3CC[C@@H](O)C3)ccc2S1(=O)=O,"inconclusive: 10.3 µM [cytotoxic, partial curve]"
11,Cc1ccc(-c2nnn(CC(=O)N(CC(=O)NC3CCCC3)c3ccccc3F)n2)o1,"inconclusive: 9.2 µM [cytotoxic, partial curve]"
12,CCOC(=O)c1c(C)[nH]c(C(=O)COC(=O)CCC(=O)c2ccc3c(c2)OCCO3)c1C,"inconclusive: 5.8 µM [cytotoxic, full curve, poor fit]"
13,Cc1ccc(NC(=O)CN(C)CC(=O)Nc2ccccc2C#N)cc1,"inconclusive: 18.4 µM [cytotoxic, single point]"
14,CCOc1ccc(N(Cc2ccccc2)C(=O)c2nc(SC)ncc2Cl)cc1,"inconclusive: 29.1 µM [cytotoxic, single point]"
15,Brc1ccc(OCCOCCOc2cccc3cccnc23)cc1,active: 18.4 µM
16,COc1cccc(C(=O)c2cn(CC(=O)NCc3ccco3)c3nc(C)ccc3c2=O)c1,"inconclusive: 20.6 µM [rising, single point]"
17,Cc1cc(C)cc(C(=O)NCCc2sc(-c3ccc(F)cc3)nc2C)c1,"inconclusive: 9.2 µM [cytotoxic, partial curve, poor fit]"
18,COc1ccc(OC)c(NC(=O)c2cccc(N3C(=O)C4C5C=CC(C6CC56)C4C3=O)c2)c1 (configuration not stated),"inconclusive: 13 µM [cytotoxic, single point]"
19,O=C(COC(=O)c1cc2c(s1)CCC2)Nc1ccc(F)cc1,inactive
20,Cc1ccc2nc(SCC(=O)N3CCC(C)CC3)nc(=O)n2c1,active: 18.4 µM
21,Cc1ccc(Nc2nc(-c3ccc(O)cc3O)cs2)nc1,"inconclusive: 20.6 µM [cytotoxic, single point]"

row,Structure (SMILES),Potency
1,O=C(c1cc(-c2ccccc2)on1)N(Cc1cccnc1)C(c1ccccn1)c1nc2ccccc2[nH]1 (configuration not stated),"inconclusive: 29.1 µM [cytotoxic, single point]"
2,Cc1ccccc1NS(=O)(=O)c1ccc(N2CCCC2=O)cc1,active: 2.59 µM
3,CCOC(=O)CC1(C)c2nc(NC(C)=O)sc2Cc2sc(NC(C)=O)nc21,inactive
4,Nc1nc(CN2CCN(c3ccccc3)CC2)nc(Nc2ccc(Cl)cc2)n1,"inconclusive: 2.31 µM [cytotoxic, partial curve, poor fit]"
5,CC(NC(=O)CN1C(=O)NC2(CCc3ccccc32)C1=O)c1ccc2c(c1)OCCO2 (configuration not stated),inactive
6,CC(C)(C)NCC(O)COc1ccccc1C1CCCC1 (configuration not stated),"inconclusive: 20.6 µM [cytotoxic, partial curve, poor fit]"
7,O=c1cc(O)c2c(=O)n(Cc3ccccc3)c3ccccc3c2o1,active: 6.51 µM
8,CCCCC(=O)N(C)c1c(CC)nc2c(OCc3cc(Cl)cc(Cl)c3)cccn12,"inconclusive: 10.3 µM [cytotoxic, partial curve, poor fit]"
9,O=C(CN1C(=O)NC2(CCCC2)C1=O)Nc1ccc(C(F)(F)F)cc1,"inconclusive: 16.4 µM [rising, single point]"
10,Cc1cc(=O)oc2cc(OCC(=O)OCC(=O)NC(=O)NC(C)C)ccc12,"inconclusive: 23.1 µM [rising, single point]"
11,Cc1ccc(NS(=O)(=O)c2ccc(C(=O)N3CCN(S(=O)(=O)c4ccccc4)CC3)cc2)cc1,"inconclusive: 29.1 µM [cytotoxic, single point]"
12,S=c1[nH]nc(-c2ccc(Cl)cc2Cl)n1-c1ccccc1,"inconclusive: 32.6 µM [cytotoxic, single point]"
13,CN(CC(=O)Nc1cccc(F)c1)C(=O)/C=C/c1ccc(S(=O)(=O)N2CCCCCC2)cc1,active: 18.4 µM
14,C/C=C/c1cccc(-c2nc(C(=O)N3CCCCC3)cc3c2[C@@H](CCO)N(C(=O)NC(C)C)C3)c1,inactive
15,CCc1ccc(/C=C(/C#N)c2nc(-c3ccc(C)cc3)cs2)cc1,"inconclusive: 32.6 µM [rising, single point]"
16,O=C(O)C1CCN(C(=O)CSc2nc3cc(Cl)ccc3c(=O)n2Cc2ccccc2)CC1,inactive
17,CCOC(=O)C1=C(CS(=O)(=O)c2ccc(F)cc2)NC(=O)NC1c1cc(OC)c(O)c(OC)c1 (configuration not stated),"inconclusive: 11.6 µM [rising, partial curve]"
18,CCOc1ccc(C(C)C)cc1S(=O)(=O)n1nc(C)cc1C,"inconclusive: 14.6 µM [cytotoxic, partial curve, poor fit]"
19,O=C(C1CC1)N1CCc2cc(Br)cc(S(=O)(=O)Nc3ccc(F)c(F)c3)c21,"inconclusive: 32.6 µM [cytotoxic, single point]"
20,Cc1nn(Cc2ccc(Cl)cc2Cl)c(C)c1NC(=O)C1C2CCC(O2)C1C(=O)O (configuration not stated),"inconclusive: 7.31 µM [cytotoxic, partial curve, poor fit]"
21,COc1ccc(C(=O)N2CCCC(CCC(=O)NCc3ccc(F)c(F)c3)C2)cc1F (configuration not stated),"inconclusive: 13 µM [cytotoxic, partial curve]"

# Sorted by formula weight (low to high): part of the list above.
row,Structure (SMILES),Potency
15,CCc1ccc(/C=C(/C#N)c2nc(-c3ccc(C)cc3)cs2)cc1,"inconclusive: 32.6 µM [rising, single point]"
8,Cc1cc(NC(=O)c2cccc(S(=O)(=O)N3CCCCCC3)c2)n(-c2ccccn2)n1,"inconclusive: 1.46 µM [cytotoxic, full curve]"
1,CS(=O)(=O)N(CC(=O)NCCSCc1c(F)cccc1Cl)c1ccc2c(c1)OCO2,"inconclusive: 29.1 µM [cytotoxic, single point]"

# Source: PubChem BioAssay AID1347076 (National Center for Advancing Translational Sciences (NCATS), 2019)
